Results taken from patent US9499524B2, “Insecticidal compounds” (Syngenta Participations AG, priority 2010, dated 2016).
Some entries share one result that the patent states for a list of compounds.

System: Myzus persicae
Experiment: Myzus persicae (green peach aphid) sunflower leaf disc spray test
Assay type: in vivo
Settings: application rate 200 ppm, sunflower leaf discs, aphid population of mixed ages; mortality after 6 DAT

Row | Compound | control of Myzus persicae
1 | CCc1cc(C(F)(C(F)(F)F)C(F)(F)C(F)(F)F)cc(C)c1-n1cc(-c2cccc(NC(=O)c3ccc(F)cc3C)c2)nn1 (centres unmarked) [Compound A129] | at least 80%
2 | N#Cc1ccc(-c2cn(-c3c(Cl)cc(C(F)(C(F)(F)F)C(F)(F)F)cc3Cl)nn2)cc1NC(=O)c1ccc(F)cc1 [Compound A160] | at least 80%
